Data as given in PubChem BioAssay AID1224830 (NIAID, 2016).
Screen: 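Regulators of TLR4 signalling towards TNF-alpha in macrophage-like cells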 (primary screen). Cells: human THP-1 monocytic leukaemia cells, TNF dual-luciferase reporter clone, PMA-differentiated to macrophage-like cells. Knock-down reagent: siRNA pool against human genes, 50 nM. Duration: LPS for 4 h, given about 3 days after siRNA transfection. Challenge: bacterial LPS (TLR4 ligand), 10 ng/ml. Measurement: 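TNF firefly reporter luminescence divided by renilla, normalised to the plate median, then turned into a robust z-score for each replicate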. Direction: TNF reporter robust z-score: higher = stronger TNF reporter response to LPS. Active means: 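Each well counts as active if its z-score is over 2.8 or under -1.5; controls are left without a call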.
Here is one part, drawn at random, of about 18,000 deposited reagents. About 2,900 of them (16%) count as active. 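Calls are made per well; low scores hint the gene aids the LPS response, high scores that it dampens it.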 A number with no mark means an inactive call. Repeated entries: four replicate wells of each siRNA pool.

For C1orf56 (chromosome 1 open reading frame 56) [SID315457305], the values are TNF reporter robust z-score -0.28.
For C1orf56 (chromosome 1 open reading frame 56) [SID315457305], the values are TNF reporter robust z-score -0.5.
Depletion of C1orf56 (chromosome 1 open reading frame 56) [SID315457305] gave: TNF reporter robust z-score -0.44.
Depletion of MNT (MAX network transcriptional repressor) [SID315450017] came out at: TNF reporter robust z-score -0.23.
After knock-down of MNT (MAX network transcriptional repressor) [SID315450017], the record shows TNF reporter robust z-score -0.07.
Depletion of MNT (MAX network transcriptional repressor) [SID315450017] resulted in: TNF reporter robust z-score -0.55.
MNT (MAX network transcriptional repressor) [SID315450017] scored TNF reporter robust z-score -0.18.
KCNK13 (potassium two pore domain channel subfamily K member 13) [SID315458102] showed TNF reporter robust z-score -0.77.
KCNK13 (potassium two pore domain channel subfamily K member 13) [SID315458102] scored TNF reporter robust z-score 0.81.
Against KCNK13 (potassium two pore domain channel subfamily K member 13) [SID315458102], the values are TNF reporter robust z-score 0.31.
With knock-down of KCNK13 (potassium two pore domain channel subfamily K member 13) [SID315458102], the screen gave TNF reporter robust z-score -0.25.
With knock-down of HOMER1 (homer scaffold protein 1) [SID315453300], the record shows TNF reporter robust z-score 0.77.
After knock-down of HOMER1 (homer scaffold protein 1) [SID315453300] the results were TNF reporter robust z-score 1.28.
With knock-down of HOMER1 (homer scaffold protein 1) [SID315453300], the screen gave TNF reporter robust z-score 0.
After knock-down of HOMER1 (homer scaffold protein 1) [SID315453300] the results were TNF reporter robust z-score 1.04.
For SPON1 (spondin 1) [SID315454070], the values are TNF reporter robust z-score -0.25.
After knock-down of SPON1 (spondin 1) [SID315454070], the screen gave TNF reporter robust z-score 0.47.
After knock-down of SPON1 (spondin 1) [SID315454070] the results were TNF reporter robust z-score 0.77.
For SPON1 (spondin 1) [SID315454070] the deposit lists TNF reporter robust z-score 0.54.

Laid out differently: 7 of the entries above.
| gene symbol | PubChem SID | TNF reporter robust z-score |
| --- | --- | --- |
| MNT (MAX network transcriptional repressor) | SID315450017 | -0.23 |
| MNT (MAX network transcriptional repressor) | SID315450017 | -0.07 |
| MNT (MAX network transcriptional repressor) | SID315450017 | -0.55 |
| MNT (MAX network transcriptional repressor) | SID315450017 | -0.18 |
| KCNK13 (potassium two pore domain channel subfamily K member 13) | SID315458102 | -0.77 |
| KCNK13 (potassium two pore domain channel subfamily K member 13) | SID315458102 | 0.81 |
| KCNK13 (potassium two pore domain channel subfamily K member 13) | SID315458102 | 0.31 |

Next reagents follow:
CACNA1B (calcium voltage-gated channel subunit alpha1 B) [SID315447654] showed TNF reporter robust z-score 0.47.
Against CACNA1B (calcium voltage-gated channel subunit alpha1 B) [SID315447654] the deposit lists TNF reporter robust z-score 3.51 (active).
CACNA1B (calcium voltage-gated channel subunit alpha1 B) [SID315447654] showed TNF reporter robust z-score -0.31.
Against CACNA1B (calcium voltage-gated channel subunit alpha1 B) [SID315447654], the entry reads TNF reporter robust z-score 0.04.
NPDC1 (neural proliferation, differentiation and control 1) [SID315458098] scored TNF reporter robust z-score 0.77.
With knock-down of NPDC1 (neural proliferation, differentiation and control 1) [SID315458098], the screen gave TNF reporter robust z-score -0.31.
NPDC1 (neural proliferation, differentiation and control 1) [SID315458098] gave TNF reporter robust z-score 0.2.
NPDC1 (neural proliferation, differentiation and control 1) [SID315458098] scored TNF reporter robust z-score -0.3.
After knock-down of HES2 (hes family bHLH transcription factor 2) [SID315457107], the screen gave TNF reporter robust z-score 0.41.
Silencing of HES2 (hes family bHLH transcription factor 2) [SID315457107] resulted in: TNF reporter robust z-score 0.31.
Silencing of HES2 (hes family bHLH transcription factor 2) [SID315457107] came out at: TNF reporter robust z-score -0.42.
HES2 (hes family bHLH transcription factor 2) [SID315457107] showed TNF reporter robust z-score -0.62.
Knock-down of L3HYPDH (trans-L-3-hydroxyproline dehydratase) [SID315461160] gave: TNF reporter robust z-score -0.26.
After knock-down of L3HYPDH (trans-L-3-hydroxyproline dehydratase) [SID315461160] the results were TNF reporter robust z-score -0.34.
With knock-down of L3HYPDH (trans-L-3-hydroxyproline dehydratase) [SID315461160] the results were TNF reporter robust z-score 0.
Knock-down of L3HYPDH (trans-L-3-hydroxyproline dehydratase) [SID315461160] came out at: TNF reporter robust z-score -0.05.
After knock-down of PCGF6 (polycomb group ring finger 6) [SID315460196], the record shows TNF reporter robust z-score -0.1.
Against PCGF6 (polycomb group ring finger 6) [SID315460196], the entry reads TNF reporter robust z-score 0.98.
Depletion of PCGF6 (polycomb group ring finger 6) [SID315460196] gave: TNF reporter robust z-score -0.64.
Knock-down of PCGF6 (polycomb group ring finger 6) [SID315460196] came out at: TNF reporter robust z-score -0.82.
For TRPV2 [SID315456692], the values are TNF reporter robust z-score -0.88.
TRPV2 [SID315456692] scored TNF reporter robust z-score -0.64.
Depletion of TRPV2 [SID315456692] gave: TNF reporter robust z-score 0.86.
With knock-down of TRPV2 [SID315456692], the record shows TNF reporter robust z-score 0.27.
After knock-down of ARK2N (arkadia (RNF111) N-terminal like PKA signaling regulator 2N) [SID315462322], the screen gave TNF reporter robust z-score -0.18.
After knock-down of ARK2N (arkadia (RNF111) N-terminal like PKA signaling regulator 2N) [SID315462322], the record shows TNF reporter robust z-score 0.45.
Silencing of ARK2N (arkadia (RNF111) N-terminal like PKA signaling regulator 2N) [SID315462322] resulted in: TNF reporter robust z-score -0.54.
With knock-down of ARK2N (arkadia (RNF111) N-terminal like PKA signaling regulator 2N) [SID315462322] the results were TNF reporter robust z-score 0.22.
